Source: patent US10792633B2, “Composition comprising a fluorine-containing surfactant” (HWK-Kronbichler GmbH, priority 2016, dated 2020)

Assay: Foam forming test in water (FIG. 7)
Settings: 20 mg in 10 ml water, shaken 1 minute

In the case of `Cn1cc[n+](CCCS(=O)(=O)[O-])c1SCCC(F)(F)C(F)(F)C(F)(F)C(F)(F)C(F)(F)C(F)(F)F` [Synthesis Example 6, 3-(1-methyl-2-((1H,1H,2H,2H-perfluorooctyl)thio)imidazolium-3-yl) propane-1-sulfonate], the foam-generating effect is reported as “active as a foam forming agent” and the foam-generating effect (listed as 3-(1-methyl-2-((1H,1H,2H,2H-perfluorooctyl)thio)imidazolium-3-yl) propane-1-sulf) is reported as “clear foaming”.
